Assay results from PMC10893103, “Cyclodextrin-Enabled Enantioselective Complexation Study of Cathinone Analogs” (Molecules, 2024).

Assays:
[1] = Chiral CE enantioseparation screening, pH 4.5
[2] = Chiral CE enantioseparation screening, pH 4.5; remark: listed apart in the source
[3] = Chiral CE enantioseparation screening, pH 4.5; remark: listed apart in the source
[4] = Chiral CE enantioseparation screening, pH 4.5; remark: listed apart in the source
[5] = Chiral CE enantioseparation screening, pH 4.5; remark: listed apart in the source
[6] = Affinity capillary electrophoresis (ACE), pH 7.4; conditions: 30 mM phosphate buffer pH 7.4; at the optimal CD concentration printed in brackets beside the value
From the text: To assess the CD complex formation capability of the five cathinone derivatives, we devised a screening ACE method tailored to closely mimic physiological conditions. In a preliminary study, the ACE conditions were optimized regarding the type, pH, and concentration of the background electrolyte, the applied voltage, and the injection parameters. […] In order to avoid high Joule heat generation, sufficiently low voltage should be used; thus, after registering the Ohm plot (I-U plot), it was set to 15 kV. Throughout our ACE measurements, corrections for viscosity and ionic strength were systematically implemented to ensure precise determination of complex stability constants.
The CE experiments were performed on a HP ^3DCE and on an Agilent 7100 instrument (Agilent Technologies, Waldbronn, Germany) equipped with a photodiode array detector and the Chemstation software for data handling. Untreated fused silica capillaries (50 µm id, 48.5 cm total, 40 cm effective length) were purchased from Agilent. Conditioning of new capillary was conducted by flushing with 1 M NaOH followed by 0.1 M NaOH and water for 30 min each. Prior to all runs, the capillary was preconditioned by rinsing with BGE (2 min). The temperature of the capillary was set to 25 °C. UV detection was performed at 215 nm, and 15–25 kV voltage was applied. Samples were injected hydrodynamically (150 mbar·sec, optimized in the 50–500 mbar·sec range). The CE-pH measurements were carried out applying 25 kV voltage and 200 mbar·sec injection.
The background electrolyte of the CE-pH measurements contained 25 mM Na2HPO4 and 25 mM Na2B4O7, and the appropriate pH was adjusted with hydrochloric acid. During the ACE measurements, 30 mM phosphate buffer pH 7.4 (30 mM Na2HPO4—NaOH) was used. The running buffer was 20 mM acetic acid adjusting with 1 M Tris the pH to 4.5 during the chiral screening experiments. The BGEs contained CDs at various concentrations (0.25–20 mM) in the ACE experiments and 1-5-10 mM in the chiral method optimization experiments.
Stock solutions of each cathinone analog (mephedrone, flephedrone, 4-MEC, butylone, and MDPV) were prepared separately in methanol (1 mg/ml), and appropriate dilutions with water were used to prepare sample solutions for the CE-pH titration and for the ACE studies applying DMSO as EOF marker, while their mixture was used during the chiral separation studies.
The simplest way to determine the mobility is from the migration times (tmax) read from the electropherograms from which the apparent mobility could be calculated, but more accurate mobility values could be obtained by the determination with the Haarhoff–van der Linde (HVL) function based on Equation (2). (2) HVLδ(t;a0,a1,a2,a3δ)=a0/a2a3δ2πexp[−1/2(t−a1/a2)^2]/1/exp(a3δ)−1+1/2[1+erf(t−a1/2a2)] where a0 is the area of the HVL function, a1 is the position of the Gaussian component, a2 is the standard deviation of the Gaussian component, and a3δ is the peak shape distortion. The application of the HVL function is necessary in the case of accurate ACE measurements because, in several cases, the peaks are distorted due to the complex formation, which makes reading the migration times and calculating the mobility more difficult and imprecise.
The most popular technique for quantifying the analyte–ligand interaction with CE is mobility shift ACE.

[7] = 20 mM acetate buffer pH 4.5, CD 1-5-10 mM
[8] = 20 mM acetate buffer pH 4.5, CD 10 mM
[9] = 20 mM acetate buffer pH 4.5, CD 1-5 mM
[10] = 20 mM acetate buffer pH 4.5, CD 1 mM
[11] = 20 mM acetate buffer pH 4.5, CD 5 mM

COCC1OC2OC3C(COC)OC(OC4C(COC)OC(OC5C(COC)OC(OC6C(COC)OC(OC7C(COC)OC(OC8C(COC)OC(OC1C(OC)C2OC)C(OC)C8OC)C(OC)C7OC)C(OC)C6OC)C(OC)C5OC)C(OC)C4OC)C(OC)C3OC (stereo not drawn) [TRIME-β-CD, permethylated-β-CD]
Enantioseparation (Rs) of Butylone [1, 7]: 0 | Enantioseparation (Rs) of 4-MEC [2, 7]: 0 | Enantioseparation (Rs) of MDPV [3, 7]: 0 | Enantioseparation (Rs) of Flephedrone [4, 7]: 0 | Enantioseparation (Rs) of Mephedrone [5, 7]: 0

CO[C@H]1[C@H]2O[C@H]3[C@H](OS(=O)(=O)O)[C@@H](OC)[C@@H](O[C@H]4[C@H](OS(=O)(=O)O)[C@@H](OC)[C@@H](O[C@H]5[C@H](OS(=O)(=O)O)[C@@H](OC)[C@@H](O[C@H]6[C@H](OS(=O)(=O)O)[C@@H](OC)[C@@H](O[C@H]7[C@H](OS(=O)(=O)O)[C@@H](OC)[C@@H](O[C@H]8[C@H](OS(=O)(=O)O)[C@@H](OC)[C@@H](O[C@@H]([C@@H]1OS(=O)(=O)O)[C@@H](COS(=O)(=O)O)O2)O[C@@H]8COS(=O)(=O)O)O[C@@H]7COS(=O)(=O)O)O[C@@H]6COS(=O)(=O)O)O[C@@H]5COS(=O)(=O)O)O[C@@H]4COS(=O)(=O)O)O[C@@H]3COS(=O)(=O)O [HMDiSu-β-CD, heptakis-(2-O-methyl, 3,6-O-disulfo)-β-CD]
Enantioseparation (Rs) of Butylone [1, 7]: 0 | Enantioseparation (Rs) of 4-MEC [2, 7]: 0 | Enantioseparation (Rs) of MDPV [3, 7]: 0 | Enantioseparation (Rs) of Flephedrone [4, 7]: 0 | Enantioseparation (Rs) of Mephedrone [5, 7]: 0

phosphated-β-CD [Phos-β-CD]
4-MEC maximal enantioresolution Rs [6]: 1.4 | Butylone maximal enantioresolution Rs [6]: 1.7 | Flephedrone maximal enantioresolution Rs [6]: 4.0 | MDPV maximal enantioresolution Rs [6]: 2.6 | Mephedrone maximal enantioresolution Rs [6]: 1.8

sulfobutyl-ether-β-CD [SBE-β-CD (DS~4)]
4-MEC maximal enantioresolution Rs [6]: 0.8 | Mephedrone maximal enantioresolution Rs [6]: 0.7

sulfo(2-hydroxy)propylated-β-CD [SHP-β-CD]
4-MEC maximal enantioresolution Rs [6]: 0.5 | MDPV maximal enantioresolution Rs [6]: 0.7 | Mephedrone maximal enantioresolution Rs [6]: 0.6

hydroxypropylated-γ-CD [HP-γ-CD]
Enantioseparation (Rs) of Butylone [1, 7]: 0 | Enantioseparation (Rs) of 4-MEC [2, 7]: 0 | Enantioseparation (Rs) of MDPV [3, 7]: 0 | Enantioseparation (Rs) of Flephedrone [4, 7]: 0 | Enantioseparation (Rs) of Mephedrone [5, 7]: 0

COC[C@H]1O[C@@H]2O[C@H]3[C@H](OC)[C@@H](OC)[C@@H](O[C@H]4[C@H](OC)[C@@H](OC)[C@@H](O[C@H]5[C@H](OC)[C@@H](OC)[C@@H](O[C@H]6[C@H](OC)[C@@H](OC)[C@@H](O[C@H]7[C@H](OC)[C@@H](OC)[C@@H](O[C@H]1[C@H](OC)[C@H]2OC)O[C@@H]7COC)O[C@@H]6COC)O[C@@H]5COC)O[C@@H]4COC)O[C@@H]3COC [TRIME-α-CD, permethylated-α-CD]
Enantioseparation (Rs) of Butylone [1, 8]: 0 | Enantioseparation (Rs) of Butylone [1, 9]: 0 | Enantioseparation (Rs) of 4-MEC [2, 8]: 0.8 | Enantioseparation (Rs) of 4-MEC [2, 9]: 0 | Enantioseparation (Rs) of MDPV [3, 8]: 0 | Enantioseparation (Rs) of MDPV [3, 9]: 0 | Enantioseparation (Rs) of Flephedrone [4, 8]: 0.6 | Enantioseparation (Rs) of Flephedrone [4, 9]: 0 | Enantioseparation (Rs) of Mephedrone [5, 8]: 0.7 | Enantioseparation (Rs) of Mephedrone [5, 9]: 0

succinyl-β-CD [Succ-β-CD (DS~4)]
Enantioseparation (Rs) of Butylone [1, 10]: 2.4 | Enantioseparation (Rs) of Butylone [1, 11]: 2.5 | Enantioseparation (Rs) of Butylone [1, 8]: 2.6 | Enantioseparation (Rs) of Flephedrone [4, 10]: 0 | Enantioseparation (Rs) of Flephedrone [4, 11]: 0.9 | Enantioseparation (Rs) of Flephedrone [4, 8]: 1.2 | Enantioseparation (Rs) of Mephedrone [5, 10]: 0 and 0 0 0 | Enantioseparation (Rs) of Mephedrone [5, 11]: 0 and 0 0 0 | Enantioseparation (Rs) of Mephedrone [5, 8]: 0 and 0 0 0 | 4-MEC maximal enantioresolution Rs [6]: 1.1 | Butylone maximal enantioresolution Rs [6]: 1.3 | MDPV maximal enantioresolution Rs [6]: 2.5

succinyl-β-CD [Succ-β-CD (DS~6)]
Butylone maximal enantioresolution Rs [6]: 1.8

COC[C@H]1O[C@@H]2O[C@H]3[C@H](OC)[C@@H](OC)[C@@H](O[C@H]4[C@H](OC)[C@@H](OC)[C@@H](O[C@H]5[C@H](OC)[C@@H](OC)[C@@H](O[C@H]6[C@H](OC)[C@@H](OC)[C@@H](O[C@H]7[C@H](OC)[C@@H](OC)[C@@H](O[C@H]8[C@H](OC)[C@@H](OC)[C@@H](O[C@H]9[C@H](OC)[C@@H](OC)[C@@H](O[C@H]1[C@H](OC)[C@H]2OC)O[C@@H]9COC)O[C@@H]8COC)O[C@@H]7COC)O[C@@H]6COC)O[C@@H]5COC)O[C@@H]4COC)O[C@@H]3COC [TRIME-γ-CD, permethylated-γ-CD]
Enantioseparation (Rs) of Butylone [1, 7]: 0 | Enantioseparation (Rs) of 4-MEC [2, 7]: 0 | Enantioseparation (Rs) of MDPV [3, 7]: 0 | Enantioseparation (Rs) of Flephedrone [4, 7]: 0 | Enantioseparation (Rs) of Mephedrone [5, 7]: 0

OC[C@H]1O[C@@H]2O[C@H]3[C@H](O)[C@@H](O)[C@@H](O[C@H]4[C@H](O)[C@@H](O)[C@@H](O[C@H]5[C@H](O)[C@@H](O)[C@@H](O[C@H]6[C@H](O)[C@@H](O)[C@@H](O[C@H]7[C@H](O)[C@@H](O)[C@@H](O[C@H]8[C@H](O)[C@@H](O)[C@@H](O[C@H]1[C@H](O)[C@H]2O)O[C@@H]8CO)O[C@@H]7CO)O[C@@H]6CO)O[C@@H]5CN1CCCC1)O[C@@H]4CO)O[C@@H]3CO [PYR-β-CD, 6-monodeoxy-6-pyrrolidine-β-CD]
MDPV maximal enantioresolution Rs [6]: 0.5

sulfopropylated-β-CD [SP-β-CD (DS~2)]
MDPV maximal enantioresolution Rs [6]: 0.6

NC[C@H]1O[C@@H]2O[C@H]3[C@H](O)[C@@H](O)[C@@H](O[C@H]4[C@H](O)[C@@H](O)[C@@H](O[C@H]5[C@H](O)[C@@H](O)[C@@H](O[C@H]6[C@H](O)[C@@H](O)[C@@H](O[C@H]7[C@H](O)[C@@H](O)[C@@H](O[C@H]8[C@H](O)[C@@H](O)[C@@H](O[C@H]1[C@H](O)[C@H]2O)O[C@@H]8CO)O[C@@H]7CO)O[C@@H]6CO)O[C@@H]5CO)O[C@@H]4CO)O[C@@H]3CO [MA-β-CD, mono-(6-N-amino-6-deoxy)-β-CD]
Butylone maximal enantioresolution Rs [6]: 0.5 | MDPV maximal enantioresolution Rs [6]: 0.7

OCCCNC[C@H]1O[C@@H]2O[C@H]3[C@H](O)[C@@H](O)[C@@H](O[C@H]4[C@H](O)[C@@H](O)[C@@H](O[C@H]5[C@H](O)[C@@H](O)[C@@H](O[C@H]6[C@H](O)[C@@H](O)[C@@H](O[C@H]7[C@H](O)[C@@H](O)[C@@H](O[C@H]8[C@H](O)[C@@H](O)[C@@H](O[C@H]1[C@H](O)[C@H]2O)O[C@@H]8CO)O[C@@H]7CO)O[C@@H]6CO)O[C@@H]5CO)O[C@@H]4CO)O[C@@H]3CO [HPA-β-CD, mono-6^A-(3-hydroxy)propylamino-β-CD]
MDPV maximal enantioresolution Rs [6]: 0.6

acetylated-β-CD [Ac-β-CD]
Butylone maximal enantioresolution Rs [6]: 0.9 | MDPV maximal enantioresolution Rs [6]: 0.8

sulfo(2-hydroxy)propylated-γ-CD [SHP-γ-CD]
4-MEC maximal enantioresolution Rs [6]: 0.8 | Butylone maximal enantioresolution Rs [6]: 0.7 | Mephedrone maximal enantioresolution Rs [6]: 0.6

Several values for one entry are separate records, joined by “and”; a condition that tells them apart may be missing. Identical values can stand only once.
